Results are given in words; binding and its absence hold for the method and conditions named.
Legend:
[1] = biological target: Pregnancy-Associated Plasma Protein A2 (PAPP-A2), wild type (human) (UniProt Q9BXP8); assay: SEC; Superose 6 Increase 10/300 in 1X PBS; both purified
[2] = biological target: Pregnancy-Associated Plasma Protein A2 (PAPP-A2), wild type (human) (UniProt Q9BXP8); assay: native gel or EMSA; blue native PAGE, 3-8% Tris-acetate gels, Tris-glycine native running buffer; both purified
[3] = biological target: Pregnancy-Associated Plasma Protein A2 (PAPP-A2), wild type (human) (UniProt Q9BXP8); assay: reducing and non-reducing SDS-PAGE; 4-12% Bis-Tris gels, non-reduced samples not boiled, Coomassie stain; both purified

Sequences of proteins named here, by UniProt entry; tags and fusion partners are left off. Residues count along the entry.
UniProt Q9BXP8, residues 235-1791: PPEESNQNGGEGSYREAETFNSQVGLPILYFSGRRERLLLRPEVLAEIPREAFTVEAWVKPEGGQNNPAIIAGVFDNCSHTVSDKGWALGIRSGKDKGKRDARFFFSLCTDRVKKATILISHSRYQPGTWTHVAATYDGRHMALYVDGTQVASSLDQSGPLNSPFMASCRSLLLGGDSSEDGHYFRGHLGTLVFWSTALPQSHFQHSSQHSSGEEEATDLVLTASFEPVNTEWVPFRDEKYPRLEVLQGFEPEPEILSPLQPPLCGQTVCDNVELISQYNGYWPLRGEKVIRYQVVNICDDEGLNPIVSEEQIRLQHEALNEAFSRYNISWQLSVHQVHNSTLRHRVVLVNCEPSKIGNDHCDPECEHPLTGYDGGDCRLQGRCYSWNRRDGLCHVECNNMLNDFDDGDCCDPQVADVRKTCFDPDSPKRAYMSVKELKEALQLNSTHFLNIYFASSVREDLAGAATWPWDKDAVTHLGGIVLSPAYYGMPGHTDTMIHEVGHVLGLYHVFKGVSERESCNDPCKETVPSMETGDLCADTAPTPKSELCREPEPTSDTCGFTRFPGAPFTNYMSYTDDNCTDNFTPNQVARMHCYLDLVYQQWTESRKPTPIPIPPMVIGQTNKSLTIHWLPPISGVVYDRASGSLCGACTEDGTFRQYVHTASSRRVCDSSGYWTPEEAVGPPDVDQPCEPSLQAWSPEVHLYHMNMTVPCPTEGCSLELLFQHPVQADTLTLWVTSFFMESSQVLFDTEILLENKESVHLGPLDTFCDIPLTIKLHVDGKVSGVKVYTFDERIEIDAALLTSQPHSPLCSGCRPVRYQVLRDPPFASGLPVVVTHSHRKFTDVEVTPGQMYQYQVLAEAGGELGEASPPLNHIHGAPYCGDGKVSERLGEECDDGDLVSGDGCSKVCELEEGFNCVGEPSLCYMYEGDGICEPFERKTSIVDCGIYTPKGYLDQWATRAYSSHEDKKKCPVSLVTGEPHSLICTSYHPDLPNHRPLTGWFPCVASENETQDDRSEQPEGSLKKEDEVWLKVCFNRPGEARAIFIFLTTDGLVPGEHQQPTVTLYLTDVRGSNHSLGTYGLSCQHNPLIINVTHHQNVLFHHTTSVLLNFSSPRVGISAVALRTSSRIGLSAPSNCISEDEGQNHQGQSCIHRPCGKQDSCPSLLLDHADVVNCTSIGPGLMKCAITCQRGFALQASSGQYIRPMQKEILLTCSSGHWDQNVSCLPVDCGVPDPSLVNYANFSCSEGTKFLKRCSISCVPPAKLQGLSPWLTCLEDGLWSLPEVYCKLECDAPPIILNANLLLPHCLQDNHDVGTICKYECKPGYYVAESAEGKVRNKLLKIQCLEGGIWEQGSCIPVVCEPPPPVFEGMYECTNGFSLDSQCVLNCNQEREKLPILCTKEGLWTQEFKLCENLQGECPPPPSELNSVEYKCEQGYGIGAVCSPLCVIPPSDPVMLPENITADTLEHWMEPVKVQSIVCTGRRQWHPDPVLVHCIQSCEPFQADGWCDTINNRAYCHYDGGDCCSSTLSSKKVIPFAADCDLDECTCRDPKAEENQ

Measured: binding

Pregnancy-Associated Plasma Protein A2 (PAPP-A2), wild type (from UniProt Q9BXP8 235-1791) (enzyme)
no binding: all assays above

— PMC10613257
